Assay results from publication PMC8206348.
No constants are given. Whether binding was seen depends on the method and setting. Binding seen in cells or lysates may run through a third protein. Binding calls can cover weak binding; strength is not graded here.

Protein sequences, listed by entry. Tags and fused reporters are not part of them. Lines headed by an entry give the natural chain unless they say otherwise; changes in a name come on top.
UniProt Q9Y5U2: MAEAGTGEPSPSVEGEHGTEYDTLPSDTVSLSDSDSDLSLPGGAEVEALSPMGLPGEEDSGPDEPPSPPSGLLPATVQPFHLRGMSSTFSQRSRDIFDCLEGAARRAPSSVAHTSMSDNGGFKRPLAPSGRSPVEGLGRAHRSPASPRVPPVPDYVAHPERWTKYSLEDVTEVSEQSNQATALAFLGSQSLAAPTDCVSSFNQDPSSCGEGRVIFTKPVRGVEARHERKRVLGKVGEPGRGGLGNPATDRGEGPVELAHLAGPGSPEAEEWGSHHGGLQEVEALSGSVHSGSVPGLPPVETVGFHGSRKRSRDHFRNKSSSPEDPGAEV
UniProt O75643: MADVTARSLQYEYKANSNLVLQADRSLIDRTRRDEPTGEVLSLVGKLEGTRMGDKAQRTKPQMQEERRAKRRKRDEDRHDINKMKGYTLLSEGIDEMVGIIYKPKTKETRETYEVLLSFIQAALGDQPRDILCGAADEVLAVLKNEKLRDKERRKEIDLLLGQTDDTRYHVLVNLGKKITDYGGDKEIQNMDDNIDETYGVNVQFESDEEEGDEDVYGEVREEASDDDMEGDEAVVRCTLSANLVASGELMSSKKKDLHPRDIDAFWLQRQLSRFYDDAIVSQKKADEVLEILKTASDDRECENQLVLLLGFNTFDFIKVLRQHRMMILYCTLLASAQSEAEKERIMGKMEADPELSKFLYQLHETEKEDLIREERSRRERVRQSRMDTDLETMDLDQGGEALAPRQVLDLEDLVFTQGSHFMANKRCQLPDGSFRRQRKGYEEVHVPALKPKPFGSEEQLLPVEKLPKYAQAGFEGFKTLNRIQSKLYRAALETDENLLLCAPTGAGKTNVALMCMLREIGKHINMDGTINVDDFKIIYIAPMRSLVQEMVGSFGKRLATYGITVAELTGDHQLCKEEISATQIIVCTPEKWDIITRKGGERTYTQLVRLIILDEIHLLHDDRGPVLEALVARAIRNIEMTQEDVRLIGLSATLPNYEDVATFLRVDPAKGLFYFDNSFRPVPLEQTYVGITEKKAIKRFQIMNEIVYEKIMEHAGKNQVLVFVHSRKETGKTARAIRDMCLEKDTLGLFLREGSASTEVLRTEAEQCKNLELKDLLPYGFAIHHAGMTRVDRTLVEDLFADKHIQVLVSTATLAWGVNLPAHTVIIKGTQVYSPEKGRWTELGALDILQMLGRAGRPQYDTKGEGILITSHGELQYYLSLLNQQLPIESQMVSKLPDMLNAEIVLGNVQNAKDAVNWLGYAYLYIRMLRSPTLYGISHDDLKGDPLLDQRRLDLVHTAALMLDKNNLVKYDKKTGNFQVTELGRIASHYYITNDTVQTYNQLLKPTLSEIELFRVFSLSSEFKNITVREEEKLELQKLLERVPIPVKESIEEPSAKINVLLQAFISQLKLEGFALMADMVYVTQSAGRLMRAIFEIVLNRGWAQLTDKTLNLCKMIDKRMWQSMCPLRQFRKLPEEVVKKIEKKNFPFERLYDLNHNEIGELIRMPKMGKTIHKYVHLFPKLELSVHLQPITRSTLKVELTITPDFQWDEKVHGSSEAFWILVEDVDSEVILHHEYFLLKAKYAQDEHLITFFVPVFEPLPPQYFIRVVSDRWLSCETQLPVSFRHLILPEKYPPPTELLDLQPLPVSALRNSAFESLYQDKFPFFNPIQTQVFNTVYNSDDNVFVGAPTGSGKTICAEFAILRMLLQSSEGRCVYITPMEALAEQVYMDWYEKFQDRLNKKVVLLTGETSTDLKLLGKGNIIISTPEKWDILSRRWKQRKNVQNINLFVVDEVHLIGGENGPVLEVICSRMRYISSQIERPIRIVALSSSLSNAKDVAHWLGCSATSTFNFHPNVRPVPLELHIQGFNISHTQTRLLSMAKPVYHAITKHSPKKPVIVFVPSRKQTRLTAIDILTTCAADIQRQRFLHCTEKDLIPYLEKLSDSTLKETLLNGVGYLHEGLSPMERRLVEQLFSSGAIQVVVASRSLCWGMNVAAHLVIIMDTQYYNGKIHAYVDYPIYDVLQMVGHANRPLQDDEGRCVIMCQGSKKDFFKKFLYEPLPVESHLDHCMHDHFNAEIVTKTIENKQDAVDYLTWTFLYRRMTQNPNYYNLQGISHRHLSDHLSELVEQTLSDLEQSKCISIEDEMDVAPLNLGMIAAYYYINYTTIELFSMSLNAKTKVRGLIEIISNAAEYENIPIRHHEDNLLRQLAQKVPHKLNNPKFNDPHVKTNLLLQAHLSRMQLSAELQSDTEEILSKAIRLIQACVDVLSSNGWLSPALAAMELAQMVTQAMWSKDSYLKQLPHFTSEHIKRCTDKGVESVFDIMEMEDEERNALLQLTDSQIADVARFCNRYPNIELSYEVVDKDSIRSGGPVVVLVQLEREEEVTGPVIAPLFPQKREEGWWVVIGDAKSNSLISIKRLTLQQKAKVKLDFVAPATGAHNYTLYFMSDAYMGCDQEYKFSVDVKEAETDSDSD

Biological target: TSSC4 ΔHom2ΔHom3-GFP (human) (UniProt Q9Y5U2)
Assay: co-IP; anti-GFP or anti-FLAG antibodies pre-bound to agarose beads, overnight at 4 °C; lysates of transfected HeLa cells in NET2 buffer (50 mM Tris-HCl pH 7.4, 150 mM NaCl, 0.05% Nonidet P-40); western blot; also from RNase A treated lysates (Fig. 1d)

Substance: SNRNP200 (from UniProt O75643 1-2136)
- binding: binds
